These results are taken from ChEMBL document CHEMBL2346572, “Discovery of AZD3514, a small-molecule androgen receptor downregulator for treatment of advanced prostate cancer” (Bioorg Med Chem Lett, 2013).

Amino acid sequences for entries named in this document (tags omitted). A change or cut given only in a name is not applied to a line headed by its entry.
UniProt Q12809: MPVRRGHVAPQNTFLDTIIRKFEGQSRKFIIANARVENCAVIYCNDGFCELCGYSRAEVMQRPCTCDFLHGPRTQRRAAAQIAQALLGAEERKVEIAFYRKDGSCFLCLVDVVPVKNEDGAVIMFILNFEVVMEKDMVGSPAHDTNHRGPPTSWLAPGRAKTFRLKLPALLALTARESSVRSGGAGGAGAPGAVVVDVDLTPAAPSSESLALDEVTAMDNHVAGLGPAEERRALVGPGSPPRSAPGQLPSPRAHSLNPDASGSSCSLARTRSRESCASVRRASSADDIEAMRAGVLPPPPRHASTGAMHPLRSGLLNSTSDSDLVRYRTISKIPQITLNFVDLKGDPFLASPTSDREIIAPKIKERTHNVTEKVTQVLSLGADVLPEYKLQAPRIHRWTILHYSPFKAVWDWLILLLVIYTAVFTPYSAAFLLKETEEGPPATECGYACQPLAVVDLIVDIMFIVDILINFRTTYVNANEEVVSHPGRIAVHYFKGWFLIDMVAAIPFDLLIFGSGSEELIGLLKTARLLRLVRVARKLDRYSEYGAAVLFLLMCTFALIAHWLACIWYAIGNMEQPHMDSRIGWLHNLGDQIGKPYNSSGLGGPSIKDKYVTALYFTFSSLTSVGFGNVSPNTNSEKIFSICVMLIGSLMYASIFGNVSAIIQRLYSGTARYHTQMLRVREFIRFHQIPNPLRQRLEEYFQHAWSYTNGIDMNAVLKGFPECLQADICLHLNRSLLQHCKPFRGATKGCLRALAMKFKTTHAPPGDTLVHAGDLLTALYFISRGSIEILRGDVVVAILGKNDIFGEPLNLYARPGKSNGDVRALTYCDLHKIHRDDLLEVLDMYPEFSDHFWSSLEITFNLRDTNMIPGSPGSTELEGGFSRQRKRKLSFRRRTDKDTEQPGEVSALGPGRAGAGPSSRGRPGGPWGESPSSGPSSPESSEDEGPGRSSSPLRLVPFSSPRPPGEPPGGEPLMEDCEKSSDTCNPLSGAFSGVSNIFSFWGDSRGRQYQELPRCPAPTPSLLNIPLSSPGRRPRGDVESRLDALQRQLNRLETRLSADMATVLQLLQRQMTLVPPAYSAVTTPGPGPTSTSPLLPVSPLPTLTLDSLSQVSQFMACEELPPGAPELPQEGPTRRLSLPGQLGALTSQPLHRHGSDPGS

Series [1] deals with Voltage-gated inwardly rectifying potassium channel KCNH2 (Homo sapiens, UniProt Q12809). Kind of series: Inhibition of human ERG by IonWorks assay.
Another series is described as follows: physchem. Conditions: buffer.

SMILES strings stand for the structures. pIC50: −log10 of the molar value. Bounds are passed on as bounds.

`Fc1ccc(CN2CCN(c3ccc4nnc(C(F)(F)F)n4n3)CC2)cc1` had a pIC50 in series [1] of 4.97.
Consider `OC1(c2ccc(F)cc2)CCN(c2ccc3nnc(C(F)(F)F)n3n2)CC1`, for which the thermodynamic solubility at 24 h in “physchem” is below 0.9 µM.
